Assay in all cases: co-IP; endogenous proteins; lysates of HCC cells (Hep3B, HepG2) in RIPA buffer, 1-2 mg total protein with 2 μg primary antibody, protein G-agarose, immunoblot; control cells and cells with sh-RANBP2 and/or sh-CEBPα
(A western blot detects proteins with antibodies after separation by electrophoresis.)

Chains of the proteins cited; added tags and fusions are not shown.
UniProt P49715: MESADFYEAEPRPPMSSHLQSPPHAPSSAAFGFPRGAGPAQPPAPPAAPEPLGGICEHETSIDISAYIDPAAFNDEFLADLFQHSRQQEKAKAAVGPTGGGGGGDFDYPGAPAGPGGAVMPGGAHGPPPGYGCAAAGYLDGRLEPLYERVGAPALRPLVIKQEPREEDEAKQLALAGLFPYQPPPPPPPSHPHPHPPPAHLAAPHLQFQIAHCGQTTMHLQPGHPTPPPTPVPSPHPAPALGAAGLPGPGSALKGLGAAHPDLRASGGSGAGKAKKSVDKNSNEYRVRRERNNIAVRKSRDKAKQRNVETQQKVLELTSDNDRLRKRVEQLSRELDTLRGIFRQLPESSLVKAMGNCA
UniProt P17676: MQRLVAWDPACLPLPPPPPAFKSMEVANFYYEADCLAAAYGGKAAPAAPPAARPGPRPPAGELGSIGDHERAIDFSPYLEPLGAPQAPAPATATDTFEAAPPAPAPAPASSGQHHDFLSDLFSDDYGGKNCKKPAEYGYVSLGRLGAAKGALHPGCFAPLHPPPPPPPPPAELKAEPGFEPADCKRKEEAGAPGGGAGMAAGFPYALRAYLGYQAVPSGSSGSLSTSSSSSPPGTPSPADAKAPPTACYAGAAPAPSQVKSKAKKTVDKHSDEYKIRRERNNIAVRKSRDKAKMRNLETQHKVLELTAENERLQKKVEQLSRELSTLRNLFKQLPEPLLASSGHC
UniProt P49792: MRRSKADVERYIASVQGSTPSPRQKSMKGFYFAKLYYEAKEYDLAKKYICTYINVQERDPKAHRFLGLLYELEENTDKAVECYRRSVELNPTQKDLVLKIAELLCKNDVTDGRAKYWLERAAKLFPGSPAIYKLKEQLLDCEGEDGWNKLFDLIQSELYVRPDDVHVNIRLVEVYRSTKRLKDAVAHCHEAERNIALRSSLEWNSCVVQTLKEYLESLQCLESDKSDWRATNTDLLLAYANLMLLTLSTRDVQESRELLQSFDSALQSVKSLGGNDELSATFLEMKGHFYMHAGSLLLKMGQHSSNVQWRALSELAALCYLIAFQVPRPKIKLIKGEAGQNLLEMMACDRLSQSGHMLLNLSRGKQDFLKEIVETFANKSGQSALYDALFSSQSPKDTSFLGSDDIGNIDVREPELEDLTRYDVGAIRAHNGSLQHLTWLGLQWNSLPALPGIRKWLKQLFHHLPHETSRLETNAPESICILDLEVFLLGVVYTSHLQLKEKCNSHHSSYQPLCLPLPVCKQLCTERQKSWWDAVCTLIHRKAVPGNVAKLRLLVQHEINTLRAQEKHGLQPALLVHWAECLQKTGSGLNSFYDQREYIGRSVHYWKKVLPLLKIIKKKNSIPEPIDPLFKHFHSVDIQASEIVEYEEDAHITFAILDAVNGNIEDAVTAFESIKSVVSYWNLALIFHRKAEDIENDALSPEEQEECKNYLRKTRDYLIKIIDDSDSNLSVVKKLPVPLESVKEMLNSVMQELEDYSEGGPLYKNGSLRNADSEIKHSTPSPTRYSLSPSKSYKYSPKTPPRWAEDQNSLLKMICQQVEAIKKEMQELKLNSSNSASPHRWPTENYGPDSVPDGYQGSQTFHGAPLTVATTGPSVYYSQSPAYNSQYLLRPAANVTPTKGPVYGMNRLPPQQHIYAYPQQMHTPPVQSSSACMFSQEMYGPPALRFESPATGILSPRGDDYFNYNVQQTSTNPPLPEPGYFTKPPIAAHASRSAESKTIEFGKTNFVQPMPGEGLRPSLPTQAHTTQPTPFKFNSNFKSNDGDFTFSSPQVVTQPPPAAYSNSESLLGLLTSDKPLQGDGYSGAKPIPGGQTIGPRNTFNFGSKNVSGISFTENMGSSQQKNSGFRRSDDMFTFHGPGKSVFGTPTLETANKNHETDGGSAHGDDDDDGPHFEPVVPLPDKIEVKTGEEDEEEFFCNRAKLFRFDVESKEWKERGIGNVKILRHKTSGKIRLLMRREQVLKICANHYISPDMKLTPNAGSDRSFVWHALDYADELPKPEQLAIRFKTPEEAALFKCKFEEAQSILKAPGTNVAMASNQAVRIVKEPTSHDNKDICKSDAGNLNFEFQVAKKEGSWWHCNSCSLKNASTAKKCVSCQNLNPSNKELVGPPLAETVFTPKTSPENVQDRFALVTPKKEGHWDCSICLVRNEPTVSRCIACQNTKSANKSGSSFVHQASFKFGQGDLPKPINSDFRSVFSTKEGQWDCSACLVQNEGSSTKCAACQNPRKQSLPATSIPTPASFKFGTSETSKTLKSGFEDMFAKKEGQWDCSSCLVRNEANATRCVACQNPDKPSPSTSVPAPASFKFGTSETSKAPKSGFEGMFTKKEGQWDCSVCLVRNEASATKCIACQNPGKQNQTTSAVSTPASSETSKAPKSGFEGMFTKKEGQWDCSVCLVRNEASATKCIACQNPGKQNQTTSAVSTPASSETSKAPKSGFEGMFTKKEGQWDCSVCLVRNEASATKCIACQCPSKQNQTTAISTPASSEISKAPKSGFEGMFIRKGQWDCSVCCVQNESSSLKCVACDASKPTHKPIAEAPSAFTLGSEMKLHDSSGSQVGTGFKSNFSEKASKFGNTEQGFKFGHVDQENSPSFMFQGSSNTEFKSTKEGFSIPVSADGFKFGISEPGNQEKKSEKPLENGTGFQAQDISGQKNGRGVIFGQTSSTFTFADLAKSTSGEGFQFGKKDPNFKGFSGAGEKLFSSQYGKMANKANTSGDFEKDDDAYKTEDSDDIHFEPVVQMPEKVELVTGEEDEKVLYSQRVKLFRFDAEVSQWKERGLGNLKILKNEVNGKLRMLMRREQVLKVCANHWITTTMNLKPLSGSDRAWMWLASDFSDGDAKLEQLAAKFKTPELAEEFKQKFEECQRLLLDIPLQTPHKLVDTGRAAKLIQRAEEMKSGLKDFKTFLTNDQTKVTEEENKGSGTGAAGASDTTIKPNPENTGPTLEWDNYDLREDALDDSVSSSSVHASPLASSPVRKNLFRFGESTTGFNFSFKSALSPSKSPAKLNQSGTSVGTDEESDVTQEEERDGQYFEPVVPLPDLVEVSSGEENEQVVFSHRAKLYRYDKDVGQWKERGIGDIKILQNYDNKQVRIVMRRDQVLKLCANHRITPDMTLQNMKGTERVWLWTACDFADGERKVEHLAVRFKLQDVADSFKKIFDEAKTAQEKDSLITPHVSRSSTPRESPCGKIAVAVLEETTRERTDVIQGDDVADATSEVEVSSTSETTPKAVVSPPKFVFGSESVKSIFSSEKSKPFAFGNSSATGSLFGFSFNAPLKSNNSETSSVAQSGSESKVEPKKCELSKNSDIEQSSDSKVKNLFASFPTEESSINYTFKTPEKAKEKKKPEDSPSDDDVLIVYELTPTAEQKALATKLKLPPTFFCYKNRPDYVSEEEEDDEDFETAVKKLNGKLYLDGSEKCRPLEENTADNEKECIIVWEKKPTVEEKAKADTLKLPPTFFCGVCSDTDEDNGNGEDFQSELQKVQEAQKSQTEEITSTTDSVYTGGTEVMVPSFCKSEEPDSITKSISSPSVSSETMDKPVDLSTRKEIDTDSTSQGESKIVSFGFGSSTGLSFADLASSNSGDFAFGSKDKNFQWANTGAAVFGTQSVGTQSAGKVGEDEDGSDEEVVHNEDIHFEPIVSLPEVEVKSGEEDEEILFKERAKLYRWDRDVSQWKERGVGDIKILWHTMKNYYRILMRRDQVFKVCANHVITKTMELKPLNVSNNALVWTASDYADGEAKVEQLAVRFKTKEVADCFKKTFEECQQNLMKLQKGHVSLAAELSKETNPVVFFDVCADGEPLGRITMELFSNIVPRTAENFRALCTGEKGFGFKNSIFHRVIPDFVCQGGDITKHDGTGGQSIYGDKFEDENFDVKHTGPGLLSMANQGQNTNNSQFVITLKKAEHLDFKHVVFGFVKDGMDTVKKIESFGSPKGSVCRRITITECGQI

In test [1] the target is CCAAT/enhancer-binding protein alpha (CEBPα), endogenous (human (endogenous in Hep3B and HepG2)) (UniProt P49715).
The target of test [2] is CCAAT/enhancer-binding protein beta (CEBPβ), endogenous (human (endogenous in Hep3B and HepG2)) (UniProt P17676).
Test [3] addresses T1, O-GlcNAcase (OGA), endogenous (human (endogenous in HCC cells)) (UniProt O60502).
T1 sequence: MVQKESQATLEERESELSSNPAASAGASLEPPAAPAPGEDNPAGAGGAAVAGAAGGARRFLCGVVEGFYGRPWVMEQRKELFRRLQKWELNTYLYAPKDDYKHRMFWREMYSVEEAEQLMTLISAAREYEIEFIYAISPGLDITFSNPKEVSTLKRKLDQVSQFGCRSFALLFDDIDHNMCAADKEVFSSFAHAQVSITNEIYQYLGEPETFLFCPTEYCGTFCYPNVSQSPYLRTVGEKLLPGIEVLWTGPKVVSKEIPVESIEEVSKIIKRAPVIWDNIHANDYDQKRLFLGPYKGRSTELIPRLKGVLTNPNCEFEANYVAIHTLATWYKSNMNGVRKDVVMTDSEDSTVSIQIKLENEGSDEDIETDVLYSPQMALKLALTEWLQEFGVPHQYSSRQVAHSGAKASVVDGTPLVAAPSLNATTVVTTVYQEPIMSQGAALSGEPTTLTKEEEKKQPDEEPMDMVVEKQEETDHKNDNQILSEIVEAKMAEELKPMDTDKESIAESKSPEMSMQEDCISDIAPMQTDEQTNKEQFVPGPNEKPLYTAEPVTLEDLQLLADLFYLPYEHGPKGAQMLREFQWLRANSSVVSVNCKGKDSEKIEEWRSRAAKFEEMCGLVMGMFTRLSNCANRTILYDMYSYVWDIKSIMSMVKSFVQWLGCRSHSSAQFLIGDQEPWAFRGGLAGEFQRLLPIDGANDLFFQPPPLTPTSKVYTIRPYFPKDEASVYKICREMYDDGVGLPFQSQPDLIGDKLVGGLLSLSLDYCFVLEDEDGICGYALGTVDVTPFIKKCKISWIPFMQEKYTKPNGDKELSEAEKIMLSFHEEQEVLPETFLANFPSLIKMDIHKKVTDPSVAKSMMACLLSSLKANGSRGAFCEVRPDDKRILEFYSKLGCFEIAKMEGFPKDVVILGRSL

Test [4] deals with T2, peroxisome proliferative-activated receptor gamma coactivator 1 alpha (PGC1α), endogenous (human (endogenous in HCC cells)) (UniProt Q9UBK2).
T2 sequence (chain, O-GlcNAc (sites not given)): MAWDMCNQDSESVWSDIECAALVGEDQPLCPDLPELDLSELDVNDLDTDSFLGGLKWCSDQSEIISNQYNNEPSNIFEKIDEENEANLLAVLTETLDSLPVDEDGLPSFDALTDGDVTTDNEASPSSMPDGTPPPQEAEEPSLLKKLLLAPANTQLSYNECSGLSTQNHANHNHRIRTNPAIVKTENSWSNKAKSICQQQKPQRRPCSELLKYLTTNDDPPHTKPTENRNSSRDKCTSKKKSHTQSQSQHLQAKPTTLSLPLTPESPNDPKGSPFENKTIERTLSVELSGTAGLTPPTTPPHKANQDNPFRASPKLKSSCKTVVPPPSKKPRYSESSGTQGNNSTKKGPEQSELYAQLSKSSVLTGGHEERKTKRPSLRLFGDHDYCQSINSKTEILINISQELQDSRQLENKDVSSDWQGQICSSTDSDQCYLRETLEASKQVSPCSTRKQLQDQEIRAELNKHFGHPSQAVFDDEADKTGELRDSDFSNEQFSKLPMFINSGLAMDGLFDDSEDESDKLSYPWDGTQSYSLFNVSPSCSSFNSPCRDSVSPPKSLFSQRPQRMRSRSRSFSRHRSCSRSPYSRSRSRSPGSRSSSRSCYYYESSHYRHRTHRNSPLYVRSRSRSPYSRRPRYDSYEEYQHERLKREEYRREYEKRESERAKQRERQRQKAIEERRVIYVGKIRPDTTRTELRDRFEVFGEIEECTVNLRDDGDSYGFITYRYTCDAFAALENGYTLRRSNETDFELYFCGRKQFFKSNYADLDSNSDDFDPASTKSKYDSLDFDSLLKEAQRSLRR

Results are given in words; binding and its absence hold for the method and conditions named. In cells and extracts the contact can be indirect. Some entries that bind do so weakly or less than the wild type.

Here are results for two molecules from article PMC8304650.

“RAN-binding protein 2 (RANBP2), endogenous (from UniProt P49792 1-3224)”: the binding entry is “binds” in test [1], “no binding” in test [2] and “no binding” in test [3].

B1: O-GlcNAcase (OGA), endogenous (enzyme, UniProt O60502 1-916)
chain: T1 sequence
On to B1, for which, in test [4], the binding result was “binds”.
